Reference: PMC3968024

Protein sequences, listed by entry. Tags and fused reporters are not part of them. Lines headed by an entry give the natural chain unless they say otherwise; changes in a name come on top.
UniProt Q6ZN44: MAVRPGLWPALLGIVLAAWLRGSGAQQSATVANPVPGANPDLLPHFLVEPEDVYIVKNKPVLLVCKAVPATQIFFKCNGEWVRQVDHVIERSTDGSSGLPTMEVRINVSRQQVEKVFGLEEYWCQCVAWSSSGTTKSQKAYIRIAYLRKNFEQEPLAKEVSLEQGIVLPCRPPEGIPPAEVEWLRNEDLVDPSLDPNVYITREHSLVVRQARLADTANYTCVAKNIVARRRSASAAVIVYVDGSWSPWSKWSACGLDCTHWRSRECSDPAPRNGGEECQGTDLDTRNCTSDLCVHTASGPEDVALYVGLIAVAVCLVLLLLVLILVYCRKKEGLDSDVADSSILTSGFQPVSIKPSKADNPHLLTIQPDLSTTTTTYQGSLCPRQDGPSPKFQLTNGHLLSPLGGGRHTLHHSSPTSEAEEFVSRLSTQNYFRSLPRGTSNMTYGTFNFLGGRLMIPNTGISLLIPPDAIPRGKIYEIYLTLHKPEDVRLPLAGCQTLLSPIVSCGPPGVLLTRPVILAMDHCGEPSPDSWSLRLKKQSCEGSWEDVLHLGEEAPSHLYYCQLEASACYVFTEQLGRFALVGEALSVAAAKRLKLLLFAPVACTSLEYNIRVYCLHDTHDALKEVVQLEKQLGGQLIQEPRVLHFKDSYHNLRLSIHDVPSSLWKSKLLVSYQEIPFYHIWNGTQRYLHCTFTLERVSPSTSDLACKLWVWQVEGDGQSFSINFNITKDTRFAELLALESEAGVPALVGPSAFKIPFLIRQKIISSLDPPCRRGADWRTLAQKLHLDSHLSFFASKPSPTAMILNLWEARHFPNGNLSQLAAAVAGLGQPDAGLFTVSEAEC

T1: HA-tagged full-length FANCC (UniProt Q00597)
T1 sequence: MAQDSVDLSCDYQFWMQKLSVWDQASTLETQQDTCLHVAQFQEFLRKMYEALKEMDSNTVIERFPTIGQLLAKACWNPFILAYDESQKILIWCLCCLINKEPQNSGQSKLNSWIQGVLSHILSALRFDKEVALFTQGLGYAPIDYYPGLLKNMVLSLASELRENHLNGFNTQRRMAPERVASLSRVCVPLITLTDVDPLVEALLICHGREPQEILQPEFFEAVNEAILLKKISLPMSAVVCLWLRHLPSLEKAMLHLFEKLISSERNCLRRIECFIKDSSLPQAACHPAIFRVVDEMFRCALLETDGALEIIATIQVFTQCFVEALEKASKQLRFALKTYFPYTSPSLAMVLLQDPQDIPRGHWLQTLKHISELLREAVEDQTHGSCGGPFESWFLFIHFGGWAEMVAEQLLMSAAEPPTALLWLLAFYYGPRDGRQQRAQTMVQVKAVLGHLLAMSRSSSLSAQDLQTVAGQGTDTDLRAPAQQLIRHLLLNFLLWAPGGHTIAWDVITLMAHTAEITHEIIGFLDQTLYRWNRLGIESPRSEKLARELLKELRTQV

T2: FANCC C-terminal caspase cleavage fragment FANCC^307-558 (yeast two-hybrid fusion) (UniProt Q00597)
T2 sequence: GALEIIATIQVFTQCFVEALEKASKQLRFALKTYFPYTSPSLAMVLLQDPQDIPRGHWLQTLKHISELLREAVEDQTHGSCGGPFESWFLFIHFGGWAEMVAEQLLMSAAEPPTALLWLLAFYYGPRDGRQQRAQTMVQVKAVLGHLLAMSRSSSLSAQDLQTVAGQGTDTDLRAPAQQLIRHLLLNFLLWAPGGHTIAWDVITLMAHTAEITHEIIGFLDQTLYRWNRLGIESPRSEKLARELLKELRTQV

T3: full-length FANCC (yeast two-hybrid fusion) (UniProt Q00597)
T3 sequence: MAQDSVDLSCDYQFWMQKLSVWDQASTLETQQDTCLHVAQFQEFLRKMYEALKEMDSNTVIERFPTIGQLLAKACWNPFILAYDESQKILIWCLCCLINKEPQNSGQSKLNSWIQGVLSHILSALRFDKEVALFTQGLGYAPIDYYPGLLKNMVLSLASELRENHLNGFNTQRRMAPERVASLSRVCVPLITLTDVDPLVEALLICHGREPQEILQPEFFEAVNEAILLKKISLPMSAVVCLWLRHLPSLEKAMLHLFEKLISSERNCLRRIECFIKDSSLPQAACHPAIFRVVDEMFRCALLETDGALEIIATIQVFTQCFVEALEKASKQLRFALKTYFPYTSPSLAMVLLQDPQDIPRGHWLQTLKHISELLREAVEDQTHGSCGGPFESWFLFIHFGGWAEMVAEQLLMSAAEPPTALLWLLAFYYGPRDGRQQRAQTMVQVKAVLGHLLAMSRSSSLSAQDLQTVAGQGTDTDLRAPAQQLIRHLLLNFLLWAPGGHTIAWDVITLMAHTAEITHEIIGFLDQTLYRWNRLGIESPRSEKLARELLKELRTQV

T4: FANCC N-terminal caspase cleavage fragment FANCC^1-306 (yeast two-hybrid fusion) (UniProt Q00597)
T4 sequence: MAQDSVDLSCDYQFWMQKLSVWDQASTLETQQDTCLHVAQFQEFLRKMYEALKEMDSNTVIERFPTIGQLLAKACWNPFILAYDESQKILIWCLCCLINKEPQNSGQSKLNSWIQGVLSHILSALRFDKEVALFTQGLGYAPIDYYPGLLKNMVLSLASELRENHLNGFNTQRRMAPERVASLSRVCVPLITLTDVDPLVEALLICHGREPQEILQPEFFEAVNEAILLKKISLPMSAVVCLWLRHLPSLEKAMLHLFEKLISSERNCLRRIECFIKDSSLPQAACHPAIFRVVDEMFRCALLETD

T5: FANCC^307-558-L554P (yeast two-hybrid fusion) (UniProt Q00597)
T5 sequence: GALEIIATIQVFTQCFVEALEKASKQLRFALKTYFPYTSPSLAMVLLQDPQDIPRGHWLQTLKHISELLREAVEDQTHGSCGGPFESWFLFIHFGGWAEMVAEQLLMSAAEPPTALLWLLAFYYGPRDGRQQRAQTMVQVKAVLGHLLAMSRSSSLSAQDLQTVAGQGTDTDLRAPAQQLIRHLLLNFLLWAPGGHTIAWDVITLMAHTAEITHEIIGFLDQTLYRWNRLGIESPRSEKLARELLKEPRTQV

B1: HA-tagged full-length FANCC (protein, UniProt Q00597 1-558)
chain: MAQDSVDLSCDYQFWMQKLSVWDQASTLETQQDTCLHVAQFQEFLRKMYEALKEMDSNTVIERFPTIGQLLAKACWNPFILAYDESQKILIWCLCCLINKEPQNSGQSKLNSWIQGVLSHILSALRFDKEVALFTQGLGYAPIDYYPGLLKNMVLSLASELRENHLNGFNTQRRMAPERVASLSRVCVPLITLTDVDPLVEALLICHGREPQEILQPEFFEAVNEAILLKKISLPMSAVVCLWLRHLPSLEKAMLHLFEKLISSERNCLRRIECFIKDSSLPQAACHPAIFRVVDEMFRCALLETDGALEIIATIQVFTQCFVEALEKASKQLRFALKTYFPYTSPSLAMVLLQDPQDIPRGHWLQTLKHISELLREAVEDQTHGSCGGPFESWFLFIHFGGWAEMVAEQLLMSAAEPPTALLWLLAFYYGPRDGRQQRAQTMVQVKAVLGHLLAMSRSSSLSAQDLQTVAGQGTDTDLRAPAQQLIRHLLLNFLLWAPGGHTIAWDVITLMAHTAEITHEIIGFLDQTLYRWNRLGIESPRSEKLARELLKELRTQV
B2: HA-tagged full-length FANCC harboring the L554P mutation (HA-FANCC^L554P) (protein, UniProt Q00597 1-558)
chain: MAQDSVDLSCDYQFWMQKLSVWDQASTLETQQDTCLHVAQFQEFLRKMYEALKEMDSNTVIERFPTIGQLLAKACWNPFILAYDESQKILIWCLCCLINKEPQNSGQSKLNSWIQGVLSHILSALRFDKEVALFTQGLGYAPIDYYPGLLKNMVLSLASELRENHLNGFNTQRRMAPERVASLSRVCVPLITLTDVDPLVEALLICHGREPQEILQPEFFEAVNEAILLKKISLPMSAVVCLWLRHLPSLEKAMLHLFEKLISSERNCLRRIECFIKDSSLPQAACHPAIFRVVDEMFRCALLETDGALEIIATIQVFTQCFVEALEKASKQLRFALKTYFPYTSPSLAMVLLQDPQDIPRGHWLQTLKHISELLREAVEDQTHGSCGGPFESWFLFIHFGGWAEMVAEQLLMSAAEPPTALLWLLAFYYGPRDGRQQRAQTMVQVKAVLGHLLAMSRSSSLSAQDLQTVAGQGTDTDLRAPAQQLIRHLLLNFLLWAPGGHTIAWDVITLMAHTAEITHEIIGFLDQTLYRWNRLGIESPRSEKLARELLKEPRTQV

Key:
[1] = target: T1, HA-tagged full-length FANCC; experiment: co-IP; HEK293T transiently transfected with both proteins; lysis in 50 mM Tris-HCl, 150 mM NaCl, 1% Triton X-100; protein A-agarose beads; Western blotting; control IgG
[2] = target: T2, FANCC C-terminal caspase cleavage fragment FANCC^307-558 (yeast two-hybrid fusion); experiment: two-hybrid; directed assays; UNC5A and FANCC constructs in pGBKT7 or pGADT7 co-transformed into AH109; growth on stringent nutritional selection; at least three independent transformations
[3] = target: T3, full-length FANCC (yeast two-hybrid fusion); experiment: as above
[4] = target: T4, FANCC N-terminal caspase cleavage fragment FANCC^1-306 (yeast two-hybrid fusion); experiment: as above
[5] = target: T5, FANCC^307-558-L554P (yeast two-hybrid fusion); experiment: as above
[6] = target: Xpress-tagged death-domain deletion mutant UNC5A (UNC5A^ΔDD) (human); experiment: co-IP; HEK293T transiently transfected with both proteins; lysis in 50 mM Tris-HCl, 150 mM NaCl, 1% Triton X-100; protein A-agarose beads; Western blotting; control IgG

Molecule | binding [2] | binding [3] | binding [4] | binding [6] | further results
Xpress-tagged death-domain deletion mutant UNC5A (UNC5A^ΔDD) (human) (domain or fragment) |  |  |  |  | binding [1]: binds weakly
UNC5A death domain deletion mutant UNC5A^ΔDD (yeast two-hybrid fusion) (human) (domain or fragment) | no binding | no binding | binds |  | 
UNC5A C-terminus part containing the death domain UNC5A^DD (yeast two-hybrid fusion) (from UniProt Q6ZN44) (domain or fragment) | binds | binds | binds |  | binding [5]: binds
B1 |  |  |  | binds weakly | 
B2 |  |  |  | binds weakly | 

Results are given in words; binding and its absence hold for the method and conditions named. Binding can be weak; no strength is given. Where a sequence is shown, tags or fusion partners need not be part of it. For some of these results: In cells and extracts the contact can be indirect.
